Reference: patent US20260217861A1
These are yes or no findings as the source states them, for the method shown. Some binding calls cover weakened binding; strength is not graded here.

By UniProt entry, the sequences of proteins in these tests, tags left out. Where a name states a change or a piece, a line headed by the entry shows the natural chain unless it says otherwise.
UniProt P02671: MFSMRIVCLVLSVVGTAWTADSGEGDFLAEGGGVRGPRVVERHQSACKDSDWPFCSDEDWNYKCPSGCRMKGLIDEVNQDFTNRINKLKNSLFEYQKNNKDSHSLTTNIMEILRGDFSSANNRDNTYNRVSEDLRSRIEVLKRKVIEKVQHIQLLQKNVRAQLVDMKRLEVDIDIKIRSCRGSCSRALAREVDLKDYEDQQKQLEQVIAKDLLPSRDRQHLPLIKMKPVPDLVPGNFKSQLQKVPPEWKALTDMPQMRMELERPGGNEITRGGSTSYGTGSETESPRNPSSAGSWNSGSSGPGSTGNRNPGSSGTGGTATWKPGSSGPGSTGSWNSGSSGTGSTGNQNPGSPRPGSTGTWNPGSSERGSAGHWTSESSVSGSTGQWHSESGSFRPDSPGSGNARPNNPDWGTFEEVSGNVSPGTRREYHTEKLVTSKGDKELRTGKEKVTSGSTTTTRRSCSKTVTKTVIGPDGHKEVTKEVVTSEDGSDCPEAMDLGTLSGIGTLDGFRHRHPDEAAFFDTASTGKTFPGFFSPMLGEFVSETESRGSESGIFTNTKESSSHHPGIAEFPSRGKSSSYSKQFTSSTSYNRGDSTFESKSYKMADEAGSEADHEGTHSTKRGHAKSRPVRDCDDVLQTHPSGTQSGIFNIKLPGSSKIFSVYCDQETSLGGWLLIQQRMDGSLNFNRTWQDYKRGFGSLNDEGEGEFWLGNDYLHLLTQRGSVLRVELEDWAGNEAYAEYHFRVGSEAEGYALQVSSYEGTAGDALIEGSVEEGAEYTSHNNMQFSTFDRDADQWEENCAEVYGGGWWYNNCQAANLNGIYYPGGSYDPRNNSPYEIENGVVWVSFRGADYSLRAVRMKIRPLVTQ
UniProt P02675: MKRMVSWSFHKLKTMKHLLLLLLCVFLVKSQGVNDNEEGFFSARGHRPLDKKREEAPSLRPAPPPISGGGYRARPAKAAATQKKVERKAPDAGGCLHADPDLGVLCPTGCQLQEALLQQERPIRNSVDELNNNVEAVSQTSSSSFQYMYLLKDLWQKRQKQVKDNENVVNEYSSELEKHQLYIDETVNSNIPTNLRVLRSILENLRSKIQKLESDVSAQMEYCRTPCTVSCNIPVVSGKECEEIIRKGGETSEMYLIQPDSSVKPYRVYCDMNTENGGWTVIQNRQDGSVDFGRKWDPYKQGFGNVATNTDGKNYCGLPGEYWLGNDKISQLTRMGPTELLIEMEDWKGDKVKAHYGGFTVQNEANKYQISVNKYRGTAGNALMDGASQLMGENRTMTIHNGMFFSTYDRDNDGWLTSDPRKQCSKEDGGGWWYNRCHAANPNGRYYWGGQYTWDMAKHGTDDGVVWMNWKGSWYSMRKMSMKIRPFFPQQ
UniProt P02679: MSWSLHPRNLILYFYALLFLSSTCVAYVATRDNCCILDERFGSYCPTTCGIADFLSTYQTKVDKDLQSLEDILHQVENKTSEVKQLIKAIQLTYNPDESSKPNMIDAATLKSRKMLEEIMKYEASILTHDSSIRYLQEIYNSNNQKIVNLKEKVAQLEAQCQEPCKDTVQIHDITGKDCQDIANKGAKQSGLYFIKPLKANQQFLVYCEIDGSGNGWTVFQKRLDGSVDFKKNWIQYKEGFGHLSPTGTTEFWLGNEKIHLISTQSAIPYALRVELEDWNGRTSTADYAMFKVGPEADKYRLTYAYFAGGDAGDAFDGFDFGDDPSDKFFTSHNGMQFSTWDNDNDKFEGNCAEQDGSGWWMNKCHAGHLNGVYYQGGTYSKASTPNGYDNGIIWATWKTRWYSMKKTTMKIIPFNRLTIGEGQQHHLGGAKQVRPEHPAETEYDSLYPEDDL

Molecular target: fibrin polymerised from human fibrinogen (human) (UniProt P02671+P02675+P02679)
Experiment: static fibrin polymerisation with rhGPV (20 µg/ml) stained with LUM/B AF647, confocal microscopy

B1: recombinant ectodomain of human GPV (rhGPV) (receptor)
chain: QPFPCPPACKCVFRDAAQCSGGDVARISALGLPTNLTHILLFGMGRGVLQSQSFSGMTVLQRLMISDSHISAVAPGTFSDLIKLKTLRLSRNKITHLPGALLDKMVLLEQLFLDHNALRGIDQNMFQKLVNLQELALNQNQLDFLPASLFTNLENLKLLDLSGNNLTHLPKGLLGAQAKLERLLLHSNRLVSLDSGLLNSLGALTELQFHRNHIRSIAPGAFDRLPNLSSLTLSRNHLAFLPSALFLHSHNLTLLTLFENPLAELPGVLFGEMGGLQELWLNRTQLRTLPAAAFRNLSRLRYLGVTLSPRLSALPQGAFQGLGELQVLALHSNGLTALPDGLLRGLGKLRQVSLRRNRLRALPRALFRNLSSLESVQLDHNQLETLPGDVFGALPRLTEVLLGHNSWRCDCGLGPFLGWLRQHLGLVGGEEPPRCAGPGAHAGLPLWALPGGDAECPGPRGPPPRPAADSSSEAPVHPALAPNSSEPWVWAQPVTTGKGQDHHHHHHHHHHH
For B1, the binding was “binds”.
